PubChem BioAssay AID1159584 – Peter MacCallum Cancer Centre | 2016
Test: 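Knock-downs that harm CDH1-null cells more than parental MCF10A cells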 (primary screen). Cells: human MCF10A breast epithelial cells, parental and CDH1-null. Reagents: siRNA against human genes. Measurement: 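ATP luminescence (CellTiter-Glo) viability per line relative to mean mock wells over all plates, and the ratio of CDH1-null to parental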. Direction: CDH1-null / parental viability ratio: higher = CDH1-null cells survive relatively better than parental; CDH1-null viability vs mock: higher = more viable CDH1-null cells; parental viability vs mock: higher = more viable parental cells.
Here is a random part of about 18,000 reagents. The record does not give: the amount of reagent, the time to read-out.

| gene knocked down | CDH1-null / parental viability ratio | CDH1-null viability vs mock (fraction of mock) | parental viability vs mock (fraction of mock) |
| --- | --- | --- | --- |
| ZNF414 (zinc finger protein 414) | 0.97 | 0.7 | 0.72 |
| SNX21 (sorting nexin family member 21) | 0.84 | 0.69 | 0.82 |
| PPP5C (protein phosphatase 5 catalytic subunit) | 1.56 | 0.84 | 0.54 |
| WDR73 (WD repeat domain 73) | 0.89 | 0.82 | 0.92 |
| NAB2 (NGFI-A binding protein 2) | 1.02 | 0.86 | 0.84 |
| PDC (phosducin) | 0.8 | 0.71 | 0.89 |
| EPCAM (epithelial cell adhesion molecule) | 1.07 | 0.9 | 0.84 |
| CFAP20 (cilia and flagella associated protein 20) | 0.86 | 0.74 | 0.86 |
| LRRC56 (leucine rich repeat containing 56) | 1.03 | 1 | 0.97 |
| CAVIN2 (caveolae associated protein 2) | 0.8 | 0.74 | 0.92 |
| TM9SF4 (transmembrane 9 superfamily member 4) | 1.11 | 0.52 | 0.47 |
| CNOT10 (CCR4-NOT transcription complex subunit 10) | 1.05 | 0.89 | 0.85 |
| MRS2 (magnesium transporter MRS2) | 1.22 | 1 | 0.82 |
| ZNF8 (zinc finger protein 8) | 1.21 | 0.69 | 0.57 |
| PLPP2 (phospholipid phosphatase 2) | 1.94 | 0.7 | 0.36 |
| MTFP1 (mitochondrial fission process 1) | 0.97 | 0.97 | 1 |
| SIX5 (SIX homeobox 5) | 0.75 | 0.51 | 0.68 |
| ACVR1 (activin A receptor type 1) | 0.77 | 0.58 | 0.75 |
| ACCS | 1.23 | 1.08 | 0.88 |
| INTS12 (integrator complex subunit 12) | 0.99 | 0.98 | 0.99 |
| ACP1 (acid phosphatase 1) | 1.17 | 0.84 | 0.72 |
| AK2 (adenylate kinase 2) | 0.87 | 0.82 | 0.94 |
| LRP5 (LDL receptor related protein 5) | 1.06 | 0.82 | 0.77 |
| TACR1 (tachykinin receptor 1) | 0.8 | 0.78 | 0.97 |
| VPS37A (VPS37A subunit of ESCRT-I) | 0.84 | 0.82 | 0.98 |
| C1QTNF1 (C1q and TNF related 1) | 1.02 | 0.9 | 0.88 |
| FIGLA (folliculogenesis specific bHLH transcription factor) | 0.94 | 0.66 | 0.7 |
| KCNK3 (potassium two pore domain channel subfamily K member 3) | 1.21 | 0.99 | 0.82 |
| RGS20 (regulator of G protein signaling 20) | 1.12 | 0.38 | 0.34 |
| TNFRSF19 (TNF receptor superfamily member 19) | 1.04 | 1.14 | 1.1 |
| MAL2 (mal, T cell differentiation protein 2) | 1.05 | 1.01 | 0.96 |
| PROM2 (prominin 2) | 1.07 | 0.9 | 0.84 |
| HOXA10 (homeobox A10) | 1.13 | 0.7 | 0.62 |
| STARD4 (StAR related lipid transfer domain containing 4) | 0.91 | 0.71 | 0.78 |
| TMEM218 (transmembrane protein 218) | 1.42 | 0.68 | 0.48 |
| KCNN1 (potassium calcium-activated channel subfamily N member 1) | 1.19 | 0.76 | 0.64 |
| SUPT16H (SPT16 homolog, facilitates chromatin remodeling subunit) | 1.06 | 0.83 | 0.78 |
| GRWD1 (glutamate rich WD repeat containing 1) | 1.07 | 1.06 | 0.99 |
| MT1A (metallothionein 1A) | 1.17 | 0.94 | 0.8 |
| EGFL7 (EGF like domain multiple 7) | 1.42 | 0.64 | 0.45 |
| UBE2L6 (ubiquitin conjugating enzyme E2 L6) | 1.28 | 0.74 | 0.58 |
| SRRM2 (serine/arginine repetitive matrix 2) | 1.04 | 0.82 | 0.79 |
| FAM3A (FAM3 metabolism regulating signaling molecule A) | 1.09 | 0.74 | 0.68 |
| PODNL1 (podocan like 1) | 1.18 | 0.4 | 0.34 |
| KPTN (kaptin, actin binding protein) | 1.1 | 0.97 | 0.88 |
| KDR (kinase insert domain receptor) | 1.02 | 0.96 | 0.94 |
| SPINK2 (serine peptidase inhibitor Kazal type 2) | 0.98 | 0.52 | 0.53 |
| OR4F21 (olfactory receptor family 4 subfamily F member 21) | 1.3 | 0.83 | 0.64 |
| OR5AR1 (olfactory receptor family 5 subfamily AR member 1) | 1.15 | 0.69 | 0.6 |
| ZNF431 (zinc finger protein 431) | 1.18 | 1.23 | 1.04 |
| DGAT2 (diacylglycerol O-acyltransferase 2) | 0.86 | 0.65 | 0.76 |
| ST18 (ST18 C2H2C-type zinc finger transcription factor) | 1.14 | 1.03 | 0.9 |
| EPHA6 (EPH receptor A6) | 1.06 | 0.53 | 0.5 |
| PPM1E (protein phosphatase, Mg2+/Mn2+ dependent 1E) | 1.64 | 0.82 | 0.5 |
| TPGS1 (tubulin polyglutamylase complex subunit 1) | 1.24 | 0.57 | 0.46 |
| CPE (carboxypeptidase E) | 1.01 | 0.94 | 0.93 |
| CTRC (chymotrypsin C) | 1.52 | 0.44 | 0.29 |
| IZUMO1R (IZUMO1 receptor, JUNO) | 1.09 | 0.86 | 0.79 |
| FAM114A2 (family with sequence similarity 114 member A2) | 0.84 | 0.82 | 0.98 |
| ACTL9 (actin like 9) | 0.9 | 0.38 | 0.42 |
| GPR61 (G protein-coupled receptor 61) | 1.41 | 1 | 0.71 |
| FUNDC2 (FUN14 domain containing 2) | 1.18 | 0.66 | 0.56 |
| TNNC1 (troponin C1, slow skeletal and cardiac type) | 0.7 | 0.42 | 0.6 |
| C1orf159 (chromosome 1 open reading frame 159) | 1.11 | 0.62 | 0.56 |
| RBP2 (retinol binding protein 2) | 1.15 | 0.94 | 0.82 |
| WDR70 (WD repeat domain 70) | 1.26 | 0.86 | 0.68 |
| PPP1R3D (protein phosphatase 1 regulatory subunit 3D) | 1.35 | 1 | 0.74 |
| OR2J3 (olfactory receptor family 2 subfamily J member 3) | 1.14 | 0.82 | 0.72 |
| XYLB (xylulokinase) | 1.04 | 0.96 | 0.92 |
| NXF3 (nuclear RNA export factor 3) | 1.32 | 0.5 | 0.38 |
| RS1 (retinoschisin 1) | 1.09 | 0.87 | 0.8 |
| PRORP (protein only RNase P catalytic subunit) | 0.78 | 0.61 | 0.78 |
| HSPA13 (heat shock protein family A (Hsp70) member 13) | 0.86 | 0.48 | 0.56 |
| NGDN (neuroguidin) | 1.07 | 0.74 | 0.69 |
| PDZD7 (PDZ domain containing 7) | 0.94 | 0.6 | 0.64 |
| UIMC1 (ubiquitin interaction motif containing 1) | 0.58 | 0.62 | 1.06 |
| MOCOS (molybdenum cofactor sulfurase) | 1.04 | 1.1 | 1.06 |
| BEND6 (BEN domain containing 6) | 1.08 | 0.8 | 0.74 |
| TMSB4X (thymosin beta 4 X-linked) | 0.92 | 0.74 | 0.8 |
| NAA38 (N-alpha-acetyltransferase 38, NatC auxiliary subunit) | 0.96 | 0.52 | 0.54 |
| SPMIP3 (sperm microtubule inner protein 3) | 1.44 | 0.52 | 0.36 |
| STMN3 (stathmin 3) | 1.03 | 0.79 | 0.77 |
| KLB (klotho beta) | 0.93 | 0.82 | 0.88 |
| GRIN2C (glutamate ionotropic receptor NMDA type subunit 2C) | 1.12 | 0.99 | 0.88 |
| IFI35 (interferon induced protein 35) | 1.18 | 0.92 | 0.78 |
| CDH18 (cadherin 18) | 1.35 | 0.84 | 0.62 |
| FRMPD4 (FERM and PDZ domain containing 4) | 1.03 | 0.79 | 0.77 |

A portion of the results above, for reference:
| gene knocked down | CDH1-null / parental viability ratio | CDH1-null viability vs mock (fraction of mock) | parental viability vs mock (fraction of mock) |
| --- | --- | --- | --- |
| TNFRSF19 (TNF receptor superfamily member 19) | 1.04 | 1.14 | 1.1 |
| MAL2 (mal, T cell differentiation protein 2) | 1.05 | 1.01 | 0.96 |
| PROM2 (prominin 2) | 1.07 | 0.9 | 0.84 |
| HOXA10 (homeobox A10) | 1.13 | 0.7 | 0.62 |
| STARD4 (StAR related lipid transfer domain containing 4) | 0.91 | 0.71 | 0.78 |
| TMEM218 (transmembrane protein 218) | 1.42 | 0.68 | 0.48 |
| KCNN1 (potassium calcium-activated channel subfamily N member 1) | 1.19 | 0.76 | 0.64 |
